No constants are given. Whether binding was seen depends on the method and setting. In cells and extracts the contact can be indirect. Some entries that bind do so weakly or less than the wild type.
Experiments:
[1] = target: focal adhesion kinase (FAK) (human (endogenous in MDA-MB-231)) (UniProt Q05397); assay: co-IP; IP of endogenous FAK from lysates of MDA-MB-231 cells treated with vehicle or TGFβ (5 ng/mL, 2 h), or with vehicle or the FAKi VS-4718 (1 μM, 24 h); western blotting for FAK, TGFβRI and TGFβRII; lysis buffer 1% Triton X-100, 0.5% NP-40, 150 mM NaCl, 10 mM Tris pH 7.4; protein G agarose
[2] = target: T1, TGFβ receptor type I (TGFβRI) (human (endogenous in MDA-MB-231)) (UniProt P36897); assay: co-IP; IP of endogenous integrin β1 with western blotting of TGFβRI, and reverse IP of TGFβRI with western blotting of integrin β1, from MDA-MB-231 lysates; also from untreated cells (without TGFβ) and with FAK inhibitor treatment
T1 sequence: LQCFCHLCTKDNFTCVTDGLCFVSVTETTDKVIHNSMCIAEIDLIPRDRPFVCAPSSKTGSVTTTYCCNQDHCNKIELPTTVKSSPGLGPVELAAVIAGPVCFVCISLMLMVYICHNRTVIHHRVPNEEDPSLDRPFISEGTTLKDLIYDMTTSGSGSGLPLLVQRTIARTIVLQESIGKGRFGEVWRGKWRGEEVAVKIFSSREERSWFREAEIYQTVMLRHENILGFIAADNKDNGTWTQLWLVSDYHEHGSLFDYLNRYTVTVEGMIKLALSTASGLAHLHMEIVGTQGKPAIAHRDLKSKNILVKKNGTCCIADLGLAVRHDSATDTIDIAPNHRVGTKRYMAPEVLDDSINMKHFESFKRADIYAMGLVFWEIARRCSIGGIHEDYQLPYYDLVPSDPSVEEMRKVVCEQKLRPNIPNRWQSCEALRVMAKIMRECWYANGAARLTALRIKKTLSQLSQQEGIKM

By UniProt entry, the sequences of proteins in these tests, tags left out. Where a name states a change or a piece, a line headed by the entry shows the natural chain unless it says otherwise. Residues count along the entry.
UniProt Q05397: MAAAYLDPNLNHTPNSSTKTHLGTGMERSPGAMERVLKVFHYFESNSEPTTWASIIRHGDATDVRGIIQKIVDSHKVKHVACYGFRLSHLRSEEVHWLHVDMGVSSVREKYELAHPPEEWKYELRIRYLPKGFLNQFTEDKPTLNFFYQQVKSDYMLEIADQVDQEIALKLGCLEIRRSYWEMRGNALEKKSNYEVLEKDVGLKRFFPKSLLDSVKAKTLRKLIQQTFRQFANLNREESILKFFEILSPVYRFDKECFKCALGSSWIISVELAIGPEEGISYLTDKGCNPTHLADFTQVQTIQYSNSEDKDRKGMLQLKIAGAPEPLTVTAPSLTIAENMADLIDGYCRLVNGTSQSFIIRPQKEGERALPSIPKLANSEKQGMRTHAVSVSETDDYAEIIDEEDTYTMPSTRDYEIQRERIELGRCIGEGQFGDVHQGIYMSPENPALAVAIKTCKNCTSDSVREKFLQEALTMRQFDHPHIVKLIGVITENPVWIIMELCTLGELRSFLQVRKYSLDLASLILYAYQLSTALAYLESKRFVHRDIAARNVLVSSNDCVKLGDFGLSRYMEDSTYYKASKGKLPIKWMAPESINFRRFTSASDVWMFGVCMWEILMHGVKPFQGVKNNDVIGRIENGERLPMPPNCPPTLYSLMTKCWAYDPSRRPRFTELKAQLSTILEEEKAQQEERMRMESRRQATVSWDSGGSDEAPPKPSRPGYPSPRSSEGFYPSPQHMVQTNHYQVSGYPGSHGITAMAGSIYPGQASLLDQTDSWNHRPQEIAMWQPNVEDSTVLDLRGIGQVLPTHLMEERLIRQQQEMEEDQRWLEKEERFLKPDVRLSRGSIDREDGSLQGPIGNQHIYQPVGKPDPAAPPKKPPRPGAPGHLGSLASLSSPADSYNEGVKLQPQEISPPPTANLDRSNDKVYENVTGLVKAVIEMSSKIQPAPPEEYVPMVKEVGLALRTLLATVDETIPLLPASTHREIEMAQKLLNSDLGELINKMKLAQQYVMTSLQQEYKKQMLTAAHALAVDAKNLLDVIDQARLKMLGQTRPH
UniProt P37173, residues 23-567: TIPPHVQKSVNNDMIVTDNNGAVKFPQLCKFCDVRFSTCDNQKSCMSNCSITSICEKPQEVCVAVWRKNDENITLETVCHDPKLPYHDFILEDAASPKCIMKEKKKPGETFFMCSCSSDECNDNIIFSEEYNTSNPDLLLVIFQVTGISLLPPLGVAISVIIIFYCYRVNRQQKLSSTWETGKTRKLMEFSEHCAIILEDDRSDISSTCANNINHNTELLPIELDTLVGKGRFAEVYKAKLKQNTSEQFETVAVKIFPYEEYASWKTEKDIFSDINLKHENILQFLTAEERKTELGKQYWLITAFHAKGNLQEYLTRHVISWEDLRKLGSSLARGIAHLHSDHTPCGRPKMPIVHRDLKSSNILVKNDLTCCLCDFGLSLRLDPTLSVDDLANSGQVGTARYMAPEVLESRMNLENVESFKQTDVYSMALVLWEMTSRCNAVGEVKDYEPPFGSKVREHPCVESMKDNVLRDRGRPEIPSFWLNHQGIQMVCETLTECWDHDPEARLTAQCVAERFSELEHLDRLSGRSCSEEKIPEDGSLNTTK
UniProt P05556: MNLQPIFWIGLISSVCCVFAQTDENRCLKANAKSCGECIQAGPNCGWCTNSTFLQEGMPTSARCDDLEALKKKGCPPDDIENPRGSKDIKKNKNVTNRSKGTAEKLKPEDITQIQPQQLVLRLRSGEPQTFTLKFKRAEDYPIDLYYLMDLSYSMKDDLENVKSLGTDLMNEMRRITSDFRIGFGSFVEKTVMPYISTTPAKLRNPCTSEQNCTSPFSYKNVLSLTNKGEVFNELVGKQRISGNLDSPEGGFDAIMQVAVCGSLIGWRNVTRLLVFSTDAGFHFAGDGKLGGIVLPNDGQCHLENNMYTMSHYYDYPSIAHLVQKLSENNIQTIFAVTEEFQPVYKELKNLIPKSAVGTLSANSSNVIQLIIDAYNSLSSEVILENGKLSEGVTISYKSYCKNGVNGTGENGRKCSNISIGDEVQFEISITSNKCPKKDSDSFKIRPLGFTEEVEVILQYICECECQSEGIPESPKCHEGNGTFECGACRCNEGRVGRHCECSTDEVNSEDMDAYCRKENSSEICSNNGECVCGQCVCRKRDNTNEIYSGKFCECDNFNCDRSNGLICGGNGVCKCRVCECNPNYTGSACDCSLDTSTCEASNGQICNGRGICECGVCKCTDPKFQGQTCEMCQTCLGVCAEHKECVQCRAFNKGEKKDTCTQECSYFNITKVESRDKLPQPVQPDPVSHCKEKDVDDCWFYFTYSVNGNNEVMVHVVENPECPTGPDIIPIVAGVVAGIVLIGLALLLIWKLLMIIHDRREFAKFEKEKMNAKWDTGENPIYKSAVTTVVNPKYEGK
UniProt Q15796: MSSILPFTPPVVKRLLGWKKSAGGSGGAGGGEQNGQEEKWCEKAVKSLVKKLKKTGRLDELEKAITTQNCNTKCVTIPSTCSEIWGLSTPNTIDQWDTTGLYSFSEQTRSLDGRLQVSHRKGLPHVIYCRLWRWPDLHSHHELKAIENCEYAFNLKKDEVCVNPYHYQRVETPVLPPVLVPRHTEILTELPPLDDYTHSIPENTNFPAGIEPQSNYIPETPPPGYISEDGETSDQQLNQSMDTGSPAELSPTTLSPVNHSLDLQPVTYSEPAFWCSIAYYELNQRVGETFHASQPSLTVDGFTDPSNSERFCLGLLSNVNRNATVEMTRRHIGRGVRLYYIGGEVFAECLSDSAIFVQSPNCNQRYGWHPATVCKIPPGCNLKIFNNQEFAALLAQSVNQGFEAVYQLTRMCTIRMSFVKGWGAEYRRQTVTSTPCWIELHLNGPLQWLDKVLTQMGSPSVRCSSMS

[3] = target: focal adhesion kinase (FAK) (human (endogenous in MDA-MB-231)) (UniProt Q05397); assay: co-IP; IP of FAK followed by western blotting of Smad2 (Supplementary Fig. 4c); cells and treatment not given

TGFβ receptor type II (TGFβRII) (from UniProt P37173 23-567)
binding [1]: no binding

integrin β1 (from UniProt P05556 21-798) (receptor)
binding [2]: binds

Smad2 (from UniProt Q15796 1-467)
binding [3]: no binding

— PMC9091212
